Reference: paper doi:10.1101/583179

Protein sequences, listed by entry. Tags and fused reporters are not part of them. Residues count along the entry.
UniProt P12956: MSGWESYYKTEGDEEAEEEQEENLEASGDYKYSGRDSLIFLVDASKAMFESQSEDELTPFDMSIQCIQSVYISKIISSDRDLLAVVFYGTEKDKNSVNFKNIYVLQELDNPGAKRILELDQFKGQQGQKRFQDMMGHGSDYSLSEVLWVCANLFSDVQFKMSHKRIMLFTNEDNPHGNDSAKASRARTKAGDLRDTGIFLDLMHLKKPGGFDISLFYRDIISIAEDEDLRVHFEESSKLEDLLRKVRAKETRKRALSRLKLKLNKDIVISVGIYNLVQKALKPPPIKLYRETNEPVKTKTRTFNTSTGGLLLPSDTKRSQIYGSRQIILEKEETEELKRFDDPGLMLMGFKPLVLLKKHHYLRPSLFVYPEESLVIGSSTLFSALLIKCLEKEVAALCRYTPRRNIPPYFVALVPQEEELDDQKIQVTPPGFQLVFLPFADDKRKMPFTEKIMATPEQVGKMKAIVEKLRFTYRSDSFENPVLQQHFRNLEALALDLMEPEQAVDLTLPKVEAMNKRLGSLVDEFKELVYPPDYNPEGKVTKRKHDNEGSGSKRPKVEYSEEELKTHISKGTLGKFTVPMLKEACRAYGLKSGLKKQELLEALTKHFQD
UniProt P02545, residues 1-646: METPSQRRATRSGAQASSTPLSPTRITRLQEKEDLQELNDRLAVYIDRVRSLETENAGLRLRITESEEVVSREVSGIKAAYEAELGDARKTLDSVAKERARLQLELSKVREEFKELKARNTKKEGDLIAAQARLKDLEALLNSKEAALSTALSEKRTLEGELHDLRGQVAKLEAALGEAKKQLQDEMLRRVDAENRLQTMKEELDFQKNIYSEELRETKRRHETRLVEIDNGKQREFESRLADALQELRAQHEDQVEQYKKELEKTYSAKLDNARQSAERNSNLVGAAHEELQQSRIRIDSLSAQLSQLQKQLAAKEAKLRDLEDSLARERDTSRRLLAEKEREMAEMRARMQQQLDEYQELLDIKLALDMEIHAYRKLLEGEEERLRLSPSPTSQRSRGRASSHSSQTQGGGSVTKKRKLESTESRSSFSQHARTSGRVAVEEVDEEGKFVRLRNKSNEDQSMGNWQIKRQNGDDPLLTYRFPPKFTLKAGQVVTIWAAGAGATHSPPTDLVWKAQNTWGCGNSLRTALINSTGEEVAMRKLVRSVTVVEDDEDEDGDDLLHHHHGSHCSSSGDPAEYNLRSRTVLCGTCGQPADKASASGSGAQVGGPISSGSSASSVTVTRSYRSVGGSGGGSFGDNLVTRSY

Target: GFP-KU70 (UniProt P12956)
Experiment: affinity purification with mass spectrometry

binding: binds
Substance: lamin-A (LMNA) (from UniProt P02545 1-646)

These are yes or no findings as the source states them, for the method shown. In cells and extracts the contact can be indirect. These calls come from enrichment with a bait or labelling near it, and not all partners need be listed.
